PubChem BioAssay AID686937 | Drosophila RNAi Screening Center | 2013
The screen tested about 23,000 reagents; shown is an unselected part of those that have a named target and a result. 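Reduced-secretion tags in replicate 1 do not always agree with the z-scores; no criterion for assigning the tags was given.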 No sequences are given here. Not given: the amount of reagent.

Screen: 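Genes in the fly needed for secretion of protein constitutively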 (primary screen)
System: Drosophila S2 cells expressing secreted horseradish peroxidase
Reagent: long dsRNA against Drosophila genes
Duration: about 5.5 days (5 days dsRNA, then 12 h reporter induction)
Conditions: reporter expression induced after 5 days of dsRNA, read 12 h later; inducer not stated
Measured: 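After 5 days of dsRNA and 12 h of reporter induction, medium peroxidase read by chemiluminescence and scored as per-plate z-score; higher values mean more reporter released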
Scale: z-score: higher = more reporter secreted into medium

| Gene | dsRNA | z-score, replicate 1 | z-score, replicate 2 | z-score, replicate 3 | z-score, replicate 4 | phenotype, replicate 1 |
| --- | --- | --- | --- | --- | --- | --- |
| Cpsf6 | DRSC10781 | 0.97 | 0.28 | – | – | – |
| l(2)gd1 | DRSC02773 | 0 | 0.17 | – | – | – |
| CG31809 | DRSC01561 | -0.03 | 0.2 | – | – | – |
| gammaSnap1 | DRSC04686 | 0.13 | 0.17 | – | – | – |
| Hsp68 | DRSC16712 | 0.27 | 0.35 | – | – | – |
| Bap60 | DRSC19337 | -1.54 | -0.75 | – | – | reduced secretion |
| ect | DRSC10675 | 0.35 | 0.38 | 0.09 | 0.53 | – |
| ect | DRSC11343 | 0.8 | 0.41 | – | – | – |
| ect | DRSC22357 | 0.02 | -0.26 | – | – | – |
| CG7824 | DRSC16321 | 0.41 | 0.36 | – | – | – |
| l(1)sc | DRSC18789 | 0.27 | 0.38 | – | – | – |
| sut3 | DRSC07702 | -6.9 | 0.11 | – | – | reduced secretion |
| CG5391 | DRSC15790 | 0.34 | -0.5 | – | – | – |
| N | DRSC18685 | 0.17 | 0.23 | – | – | – |
| mof | DRSC18795 | 0.22 | 0.12 | – | – | – |
| CG14968 | DRSC08427 | 0.79 | 0.53 | – | – | – |
| Gr33a | DRSC02589 | 0.05 | 0.07 | – | – | – |
| Taf13 | DRSC02106 | -0.66 | -0.57 | – | – | – |
| CG6873 | DRSC20014 | -0.73 | 0.19 | – | – | – |
| CG17739 | DRSC06689 | 0.37 | 0.39 | – | – | – |
| atos | DRSC07318 | 0.47 | 0.52 | – | – | – |
| lncRNA:CR43242 | DRSC03827 | 0.07 | 0.22 | – | – | – |
| CG9518 | DRSC20194 | 0.3 | 0.29 | – | – | – |
| Best1 | DRSC16909 | 0.52 | 0.77 | 0.49 | 0.28 | – |
| smal | DRSC02318 | 0.46 | 0.38 | 0.25 | 0.41 | – |
| smal | DRSC02319 | -0.13 | 0.17 | – | – | – |
| smal | DRSC02320 | 0.03 | 0.25 | – | – | – |
| smal | DRSC02504 | 0.13 | 0.3 | – | – | – |
| smal | DRSC22866 | 3.05 | 3.44 | – | – | – |
| thetaTry | DRSC07705 | 0.22 | 0.19 | – | – | – |
| rdhB | DRSC16190 | 0.31 | 0.28 | – | – | – |
| Tap42 | DRSC02967 | 0.53 | 0.4 | – | – | – |
| CG42323 | DRSC19629 | 0.04 | 0.25 | – | – | – |
| CG42323 | DRSC21397 | 0.25 | 0.36 | – | – | – |
| bma | DRSC09896 | 0.12 | 0.14 | – | – | – |
| bma | DRSC10164 | 0.48 | 0 | – | – | – |
| CG32241 | DRSC08100 | -0.03 | 0.45 | 0.3 | 0.27 | – |
| CG32241 | DRSC21518 | 0.6 | -0.37 | – | – | – |
| twit | DRSC03210 | 0.36 | 0.13 | – | – | – |
| OtopLb | DRSC00594 | 0.04 | 0.35 | – | – | – |
| PolE2 | DRSC09737 | 0.5 | 0.37 | – | – | – |
| CG32507 | DRSC20421 | 0.21 | 0.25 | 0.06 | -0.18 | – |
| CG4712 | DRSC06882 | 0.44 | 0.3 | – | – | – |

Reformatted: 6 of the entries above
CG42323 [DRSC21397]: z-score, replicate 1 = 0.25; z-score, replicate 2 = 0.36
bma [DRSC09896]: z-score, replicate 1 = 0.12; z-score, replicate 2 = 0.14
bma [DRSC10164]: z-score, replicate 1 = 0.48; z-score, replicate 2 = 0
CG32241 [DRSC08100]: z-score, replicate 1 = -0.03; z-score, replicate 2 = 0.45; z-score, replicate 3 = 0.3; z-score, replicate 4 = 0.27
CG32241 [DRSC21518]: z-score, replicate 1 = 0.6; z-score, replicate 2 = -0.37
twit [DRSC03210]: z-score, replicate 1 = 0.36; z-score, replicate 2 = 0.13

Continued:
| Gene | dsRNA | z-score, replicate 1 | z-score, replicate 2 | z-score, replicate 3 | z-score, replicate 4 | phenotype, replicate 1 |
| --- | --- | --- | --- | --- | --- | --- |
| CG18823 | DRSC18168 | 0.42 | 0.41 | – | – | – |
| Aprt | DRSC08139 | 0.12 | -0.19 | – | – | – |
| ebo | DRSC18787 | 0.34 | 0.08 | – | – | – |
| CG14414 | DRSC19599 | 0.28 | 0.6 | – | – | – |
| dpy | DRSC00233 | -0.09 | 0.13 | – | – | – |
| dpy | DRSC00234 | 0.16 | 0.05 | – | – | – |
| dpy | DRSC00472 | 0.14 | 0.3 | – | – | – |
| CG11170 | DRSC04090 | 0.14 | 0.41 | – | – | – |
| D2hgdh | DRSC18577 | 0.04 | 0.01 | – | – | – |
| Nup44A | DRSC07248 | -0.49 | -0.61 | – | – | – |
| CG7514 | DRSC08597 | 0.21 | 0.23 | – | – | – |
| CG13871 | DRSC06430 | 0.17 | 0.04 | – | – | – |
| CG17839 | DRSC10290 | 0.03 | 0.33 | – | – | – |
| CG17839 | DRSC10291 | 0.34 | 0.44 | – | – | – |
| cact | DRSC03501 | -0.03 | 0.18 | – | – | – |
| CG12728 | DRSC17883 | 0.4 | 0.42 | – | – | – |
| CG12746 | DRSC12218 | 0.28 | 0.41 | – | – | – |
| CG31326 | DRSC16532 | -0.42 | 0.37 | – | – | – |
| rdog | DRSC14431 | 0.39 | 0.14 | – | – | – |
| SiaT | DRSC04494 | 0.2 | 0.01 | – | – | – |
| mRpL21 | DRSC11100 | 0.29 | 0.6 | – | – | – |
| sas | DRSC12631 | 0.01 | 0.27 | – | – | – |
| Mpc1 | DRSC14770 | 0.39 | 0.47 | – | – | – |
| CG5521 | DRSC15828 | 0.24 | 0.32 | – | – | – |
| CG42369 | DRSC03244 | 0.72 | 0.52 | – | – | – |
| MKP-4 | DRSC19567 | 0.45 | 0.52 | – | – | – |
| Roe1 | DRSC07534 | -0.02 | -0.11 | – | – | – |
| Sema1b | DRSC07550 | 0.48 | 0.33 | – | – | – |
| eIF2D | DRSC13916 | -0.11 | -0.92 | – | – | – |
| nAChRbeta1 | DRSC08097 | -0.43 | 0.28 | – | – | – |
| nAChRbeta1 | DRSC08728 | 0.4 | 0.54 | – | – | – |
| CG5664 | DRSC11782 | 0.74 | 0.48 | – | – | – |
| mbm | DRSC00319 | 0.16 | 0.34 | – | – | – |
| CG11076 | DRSC17197 | 0.21 | 0.35 | – | – | – |
| MED11 | DRSC10739 | -5.67 | -5.96 | – | – | reduced secretion |
| Unc-115a | DRSC12749 | 0.53 | -0.08 | – | – | – |
| Cyp6v1 | DRSC20565 | -0.41 | 0.09 | – | – | – |
| cert | DRSC09674 | 0.18 | 0.13 | – | – | – |
| HHEX | DRSC16186 | -0.15 | -0.39 | – | – | – |
